Test results from the supplement of paper PMC12067093, “Discovery and optimisation of a covalent ligand for TRIM25 and its application to targeted protein ubiquitination” (Chemical Science, 2025).
Some of the results follow.

Compound: Cc1cc(ccc1-c1ccccc1)C(=O)N1CCCN(CC1)C(=O)CCl [compound 10]
Assay: probe-labelled cysteine peptide fold change vs DMSO (competition) (log2 fold change); higher = less target engagement (more negative = stronger competition)
Conditions: 50 µM; THP-1; incubation time: 4 h
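Note: competitive profiling in live THP-1 cells: cysteine peptides tagged with an iodoacetamide desthiobiotin (IA-DTB) probe, intensity after compound treatment relative to DMSO-treated cells.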

Target	probe-labelled cysteine peptide fold change
NAE1_Q13564_153_LADVLWNSQIPLLICR (UniProt Q13564)	0.139
NAXE_Q8NCW5_127_SPPTVLVICGPGNNGGDGLVCAR (UniProt Q8NCW5)	0.383
MYO9B_Q13459_234_RVNQCIVISGESGSGK (UniProt Q13459)	0.311
NAA10_P41227_194_GNSPPSSGEACR (UniProt P41227)	0.0825
NAA16_Q6N069_221_QICDKLLVEEIK (UniProt Q6N069)	-0.793
NCEH1_Q6PIU2_345_TYILTCEHDVLR (UniProt Q6PIU2)	0.271
NAP1L4_Q99733_250_ADPFSFEGPEIVDCDGCTIDWK (UniProt Q99733)	0.326
NCAPH_Q15003_267_TAASFDECSTAGVFLSTLHCQDYR (UniProt Q15003)	-0.00723
NBR1_Q14596_505_TDDLTCQQEETFLLAK (UniProt Q14596)	0.148
NBEAL2_Q6ZNJ1_2335_ALEGIISNFGQTPCQLLK (UniProt Q6ZNJ1)	0.0182
NCAM1_P13591_96_CVVTGEDGSESEATVNVK (UniProt P13591)	0.0411
NAE1_Q13564_483_DDYVHEFCR (UniProt Q13564)	0.223
NCAPG_Q9BPX3_177_DDECPVVNAYATLIENDSNPEVR (UniProt Q9BPX3)	-0.294
MYO6_Q9UM54_1236_QMELHPDKPPILLVAGKDDMEMCELNLEETGLTR (UniProt Q9UM54)	-0.191
NCAPH_Q15003_397_EPCQVQSCQEEMISLGDGDIR (UniProt Q15003)	-0.767
NAT10_Q9H0A0_194_FILSLASCK (UniProt Q9H0A0)	-0.0498
NAA25_Q14CX7_339_SQGCNDEYK (UniProt Q14CX7)	-0.598
MYO18A_Q92614_811_GASFEELCHNYTQDR (UniProt Q92614)	-0.0101
MYO1F_O00160_788_CVYVIGR (UniProt O00160)	0.101

Retrieved one by one from the list above, 3 records:
Target	probe-labelled cysteine peptide fold change
NAXE_Q8NCW5_127_SPPTVLVICGPGNNGGDGLVCAR (UniProt Q8NCW5)	0.383
NBEAL2_Q6ZNJ1_2335_ALEGIISNFGQTPCQLLK (UniProt Q6ZNJ1)	0.0182
NBR1_Q14596_505_TDDLTCQQEETFLLAK (UniProt Q14596)	0.148

The results go on.

Target	probe-labelled cysteine peptide fold change
NCBP2_P52298_84_TACGFCFVEYYSR (UniProt P52298)	-0.00311
MYO9A_B2RTY4_1973_TSDCTATK (UniProt B2RTY4)	-0.22
NCBP1_Q09161_231_PHPQEEYLDCLWAQIQK (UniProt Q09161)	0.343
NAA25_Q14CX7_381_VFVDLLPATQCTK (UniProt Q14CX7)	-0.0518
NARS_O43776_438_LMTDTINEPILLCR (UniProt O43776)	-0.0301
NCF2_P19878_514_VFVEDCATTDLESTR (UniProt P19878)	0.0215
MYO1G_B0I1T2_942_GQDDLVVCLHR (UniProt B0I1T2)	-0.0628
NACC1_Q96RE7_464_ESEMNAIAADMCTNAR (UniProt Q96RE7)	-0.0747
NCAPD2_Q15021_421_SVLVCK (UniProt Q15021)	0.162
NCAPG2_Q86XI2_401_STGILGVCK (UniProt Q86XI2)	-0.123
NCK1_P16333_340_ETVYCIGQR (UniProt P16333)	-0.0537
MYO1G_B0I1T2_97_DTCIVISGESGAGK (UniProt B0I1T2)	0.0953
NCF2_P19878_40+45_ICFNIGCMYTILK (UniProt P19878)	-0.4
NCAM1_P13591_829_GPVEAKPECQETETK (UniProt P13591)	0.228
NCAPH2_Q6IBW4_309_EREGAPEPASCVK (UniProt Q6IBW4)	-0.254
NCAPD3_P42695_824_ASAETPAEEQELLTQVCGDVLSTCEHR (UniProt P42695)	0.0896
NARS_O43776_452_CPEDSR (UniProt O43776)	-0.0731
NCAPD2_Q15021_772_CSSVMLLGMMAR (UniProt Q15021)	0.226
NCAPG2_Q86XI2_498_ICPMEHILVR (UniProt Q86XI2)	0.0269
